The record followed here is paper PMC12003641.

By UniProt entry, the sequences of proteins in these tests, tags left out.
UniProt P40337: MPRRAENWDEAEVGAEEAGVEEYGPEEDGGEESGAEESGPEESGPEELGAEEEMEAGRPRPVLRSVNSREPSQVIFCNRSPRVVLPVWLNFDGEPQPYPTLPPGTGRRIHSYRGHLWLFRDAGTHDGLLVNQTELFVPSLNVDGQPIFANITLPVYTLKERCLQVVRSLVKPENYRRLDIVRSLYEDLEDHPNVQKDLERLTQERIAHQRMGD

Results are given in words; binding and its absence hold for the method and conditions named. In cells and extracts the contact can be indirect. These calls come from enrichment with a bait or labelling near it, and not all partners need be listed.

Test [1] concerns the target VHL-Flag-BirA (UniProt P40337). Put plainly: proximity labelling; BioID in HEK293A cells transfected with VHL-Flag-BirA; 10 µM MG132 or vehicle 4 h, 50 µM biotin 1 h; streptavidin pull-down of biotinylated proteins, immunoblot for pRb. A general note: A western blot detects proteins with antibodies after separation by electrophoresis.
Test [2] deals with VHL-Flag-BirA (UniProt P40337). Briefly: proximity labelling; BioID in HEK293A cells expressing VHL-Flag-BirA; 10 µM MG132 or DMSO 4 h, then 50 µM biotin 1 h; streptavidin beads, SDS-PAGE, in-gel trypsin digest, LC-MS.
In test [3] the target is VHL-Flag-BirA expressed in RCC4 cells (UniProt P40337). Put plainly: proximity labelling; BioID in RCC4 cells with exogenous VHL-BirA, with or without MG132; biotinylation of endogenous pRb.

B1: retinoblastoma protein (pRb), endogenous in HEK293A (protein, UniProt P06400 1-928)
chain: MPPKTPRKTAATAAAAAAEPPAPPPPPPPEEDPEQDSGPEDLPLVRLEFEETEEPDFTALCQKLKIPDHVRERAWLTWEKVSSVDGVLGGYIQKKKELWGICIFIAAVDLDEMSFTFTELQKNIEISVHKFFNLLKEIDTSTKVDNAMSRLLKKYDVLFALFSKLERTCELIYLTQPSSSISTEINSALVLKVSWITFLLAKGEVLQMEDDLVISFQLMLCVLDYFIKLSPPMLLKEPYKTAVIPINGSPRTPRRGQNRSARIAKQLENDTRIIEVLCKEHECNIDEVKNVYFKNFIPFMNSLGLVTSNGLPEVENLSKRYEEIYLKNKDLDARLFLDHDKTLQTDSIDSFETQRTPRKSNLDEEVNVIPPHTPVRTVMNTIQQLMMILNSASDQPSENLISYFNNCTVNPKESILKRVKDIGYIFKEKFAKAVGQGCVEIGSQRYKLGVRLYYRVMESMLKSEEERLSIQNFSKLLNDNIFHMSLLACALEVVMATYSRSTSQNLDSGTDLSFPWILNVLNLKAFDFYKVIESFIKAEGNLTREMIKHLERCEHRIMESLAWLSDSPLFDLIKQSKDREGPTDHLESACPLNLPLQNNHTAADMYLSPVRSPKKKGSTTRVNSTANAETQATSAFQTQKPLKSTSLSLFYKKVYRLAYLRLNTLCERLLSEHPELEHIIWTLFQHTLQNEYELMRDRHLDQIMMCSMYGICKVKNIDLKFKIIVTAYKDLPHAVQETFKRVLIKEEEYDSIIVFYNSVFMQRLKTNILQYASTRPPTLSPIPHIPRSPYKFPSSPLRIPGGNIYISPLKSPYKISEGLPTPTKMTPRSRILVSIGESFGTSEKFQKINQMVCNSDRVLKRSAEGSNPPKPLKKLRFDIEGSDEADGSKHLPGESKFQQKLAEMTSTRTRMQKQKMNDSMDTSNKEEK
On to B1, for which the binding entry in test [1] and in test [2] was “binds” throughout.

B2: retinoblastoma protein (pRb), endogenous in RCC4 (protein, UniProt P06400 1-928)
chain: MPPKTPRKTAATAAAAAAEPPAPPPPPPPEEDPEQDSGPEDLPLVRLEFEETEEPDFTALCQKLKIPDHVRERAWLTWEKVSSVDGVLGGYIQKKKELWGICIFIAAVDLDEMSFTFTELQKNIEISVHKFFNLLKEIDTSTKVDNAMSRLLKKYDVLFALFSKLERTCELIYLTQPSSSISTEINSALVLKVSWITFLLAKGEVLQMEDDLVISFQLMLCVLDYFIKLSPPMLLKEPYKTAVIPINGSPRTPRRGQNRSARIAKQLENDTRIIEVLCKEHECNIDEVKNVYFKNFIPFMNSLGLVTSNGLPEVENLSKRYEEIYLKNKDLDARLFLDHDKTLQTDSIDSFETQRTPRKSNLDEEVNVIPPHTPVRTVMNTIQQLMMILNSASDQPSENLISYFNNCTVNPKESILKRVKDIGYIFKEKFAKAVGQGCVEIGSQRYKLGVRLYYRVMESMLKSEEERLSIQNFSKLLNDNIFHMSLLACALEVVMATYSRSTSQNLDSGTDLSFPWILNVLNLKAFDFYKVIESFIKAEGNLTREMIKHLERCEHRIMESLAWLSDSPLFDLIKQSKDREGPTDHLESACPLNLPLQNNHTAADMYLSPVRSPKKKGSTTRVNSTANAETQATSAFQTQKPLKSTSLSLFYKKVYRLAYLRLNTLCERLLSEHPELEHIIWTLFQHTLQNEYELMRDRHLDQIMMCSMYGICKVKNIDLKFKIIVTAYKDLPHAVQETFKRVLIKEEEYDSIIVFYNSVFMQRLKTNILQYASTRPPTLSPIPHIPRSPYKFPSSPLRIPGGNIYISPLKSPYKISEGLPTPTKMTPRSRILVSIGESFGTSEKFQKINQMVCNSDRVLKRSAEGSNPPKPLKKLRFDIEGSDEADGSKHLPGESKFQQKLAEMTSTRTRMQKQKMNDSMDTSNKEEK
Consider B2, for which the binding result in test [3] is “binds”.
